A short description of this data set: general procedure: Fmoc solid-phase peptide synthesis; Rink Amide-MBHA resin (Novabiochem); DIC (symmetric anhydride). The conditions noted are these: oxidative folding step, as determined by HPLC.

For the substance “Ac-CVRLHESCLGQQVPCCDPAATCYCRFFNAFCYCR-NH2 (N-terminal acetyl, C-terminal amide; synthetic AGRP fragment)”, the oxidative folding yield entry is reported as “greater than 80%”.

The values above are taken from patent US20030064921A1 (The Regents of the University of California, priority 1999, published 2003).
